PubChem BioAssay AID1224826 – NIAID | 2016

Purpose: 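Genes that change LPS-induced Tnf promoter activity in mouse macrophages when knocked down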 (primary screen)
Cell system: RAW264.7 G9 macrophages from mouse bearing reporters for p65 (GFP) and the Tnf promoter (mCherry)
Reagents: siRNA pool against mouse genes, 100 nM
Time to read-out: 16 h of LPS stimulation, after 2 days of siRNA transfection
Conditions: bacterial lipopolysaccharide (Salmonella minnesota R595), 10 ng/ml
Measured: 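Imaged Tnf reporter mCherry in nuclei, minus background, normalised per plate to the median and expressed as robust z-scores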
Scale: Tnf reporter robust z-score: higher = stronger Tnf promoter reporter signal after LPS
Rule for the call: 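a well counts as active at a score of -1.3 or below (Tlr4 knock-down control median) or above 3 (raised signal); controls and wells holding fewer than 50 cells are excluded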
Calls: active = Tnf reporter clearly lowered or raised; inactive = no clear change in Tnf reporter
The deposit covers about 17,000 reagents; shown is a random part of them. About 1,110 of them (6.6%) count as active. 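Active means lowered or raised reporter signal; replicate intensities are raw and not normalised per plate.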 Further read-outs or replicates are left out here. No sequences are given here.

| gene symbol | Tnf reporter robust z-score | fewer than 50 cells in well | outcome |
| --- | --- | --- | --- |
| Rnf151 (ring finger protein 151) | -1.58 | enough cells in well | active |
| Naga (N-acetyl galactosaminidase, alpha) | 0.14 | enough cells in well | inactive |
| Rdh13 (retinol dehydrogenase 13 (all-trans and 9-cis)) | 1.83 | enough cells in well | inactive |
| Thoc3 (THO complex 3) | -0.87 | enough cells in well | inactive |
| Or8g54 (olfactory receptor family 8 subfamily G member 54) | -0.26 | enough cells in well | inactive |
| Ints10 (integrator complex subunit 10) | – | fewer than 50 cells per well; well left out of calls | inactive |
| Slc17a3 | 1.25 | enough cells in well | inactive |
| Ctsk (cathepsin K) | -1.46 | enough cells in well | active |
| Ecm1 (extracellular matrix protein 1) | 1.07 | enough cells in well | inactive |
| Pigv (phosphatidylinositol glycan anchor biosynthesis, class V) | 1.33 | enough cells in well | inactive |
| Ret (ret proto-oncogene) | -0.58 | enough cells in well | inactive |
| Ube2q1 (ubiquitin-conjugating enzyme E2Q family member 1) | -1.04 | enough cells in well | inactive |
| Slc47a1 | -0.05 | enough cells in well | inactive |
| Sema4g | -1.68 | enough cells in well | active |
| Cwh43 (cell wall biogenesis 43 C-terminal homolog) | – | fewer than 50 cells per well; well left out of calls | inactive |
| Or4a66 (olfactory receptor family 4 subfamily A member 66) | -0.66 | enough cells in well | inactive |
| Mapre1 (microtubule-associated protein, RP/EB family, member 1) | -0.98 | enough cells in well | inactive |
| Ube2b (ubiquitin-conjugating enzyme E2B) | 0.41 | enough cells in well | inactive |
| Rgs19 (regulator of G-protein signaling 19) | -0.06 | enough cells in well | inactive |
| Pcdhb6 (protocadherin beta 6) | -0.88 | enough cells in well | inactive |
| Magea4 (MAGE family member A4) | 1.29 | enough cells in well | inactive |
| Xbp1 (X-box binding protein 1) | 0.05 | enough cells in well | inactive |
| Tmt1a (thiol methyltransferase 1A1) | – | fewer than 50 cells per well; well left out of calls | inactive |
| Nags (N-acetylglutamate synthase) | -0.76 | enough cells in well | inactive |
| Atg4d (autophagy related 4D, cysteine peptidase) | 2.62 | enough cells in well | inactive |
| Spata31d1a (spermatogenesis associated 31 subfamily D, member 1A) | – | fewer than 50 cells per well; well left out of calls | inactive |
| Smtnl1 (smoothelin-like 1) | -0.03 | enough cells in well | inactive |
| Mas1 (MAS1 proto-oncogene, G protein-coupled receptor) | -0.44 | enough cells in well | inactive |
| Or10a3m (olfactory receptor family 10 subfamily A member 3M) | 1.33 | enough cells in well | inactive |
| Trpv5 | -0.65 | enough cells in well | inactive |
| Arhgef11 (Rho guanine nucleotide exchange factor 11) | -0.09 | enough cells in well | inactive |
| Lrrc42 (leucine rich repeat containing 42) | 1.69 | enough cells in well | inactive |
| Msl3 (MSL complex subunit 3) | -1.01 | enough cells in well | inactive |
| Il9 (interleukin 9) | -0.36 | enough cells in well | inactive |
| Erp44 (endoplasmic reticulum protein 44) | 0.25 | enough cells in well | inactive |
| Cd40 (CD40 antigen) | 0.89 | enough cells in well | inactive |
| Tyk2 (tyrosine kinase 2) | 1.31 | enough cells in well | inactive |
| Slc2a10 | – | fewer than 50 cells per well; well left out of calls | inactive |
| H2-T10 (histocompatibility 2, T region locus 10) | 0.75 | enough cells in well | inactive |
| Pde1a (phosphodiesterase 1A, calmodulin-dependent) | 0.54 | enough cells in well | inactive |
| Dbil5 (diazepam binding inhibitor-like 5) | -1.03 | enough cells in well | inactive |
| Bace1 (beta-site APP cleaving enzyme 1) | 0.46 | enough cells in well | inactive |
| Or2a52 (olfactory receptor family 2 subfamily A member 52) | 0.52 | enough cells in well | inactive |
| Cnr2 (cannabinoid receptor 2) | 1.04 | enough cells in well | inactive |
| Pbp2 (phosphatidylethanolamine binding protein 2) | 0.39 | enough cells in well | inactive |
| Samd10 (sterile alpha motif domain containing 10) | 2.53 | enough cells in well | inactive |
| Cacnb2 (calcium channel, voltage-dependent, beta 2 subunit) | -0.61 | enough cells in well | inactive |
| Plin2 (perilipin 2) | -0.31 | enough cells in well | inactive |
| Dnali1 (dynein, axonemal, light intermediate polypeptide 1) | 0.07 | enough cells in well | inactive |
| Astl (astacin like metalloendopeptidase) | 0.94 | enough cells in well | inactive |
| Pex14 (peroxisomal biogenesis factor 14) | 0.23 | enough cells in well | inactive |
| Or4a73 (olfactory receptor family 4 subfamily A member 73) | 1.48 | enough cells in well | inactive |
| Tigd3 (tigger transposable element derived 3) | -1.01 | enough cells in well | inactive |
| Pax1 (paired box 1) | -1.13 | enough cells in well | inactive |
| Insig1 (insulin induced gene 1) | -0.05 | enough cells in well | inactive |
| Cox14 (cytochrome c oxidase assembly protein 14) | – | fewer than 50 cells per well; well left out of calls | inactive |
| Rtl1 (retrotransposon Gaglike 1) | 2.45 | enough cells in well | inactive |
| Ldlrad3 (low density lipoprotein receptor class A domain containing 3) | 0.69 | enough cells in well | inactive |

Sorted by “Tnf reporter robust z-score” (low to high): 8 of the entries above
| gene symbol | Tnf reporter robust z-score | fewer than 50 cells in well | outcome |
| --- | --- | --- | --- |
| Dbil5 (diazepam binding inhibitor-like 5) | -1.03 | enough cells in well | inactive |
| Cacnb2 (calcium channel, voltage-dependent, beta 2 subunit) | -0.61 | enough cells in well | inactive |
| Plin2 (perilipin 2) | -0.31 | enough cells in well | inactive |
| Pbp2 (phosphatidylethanolamine binding protein 2) | 0.39 | enough cells in well | inactive |
| Bace1 (beta-site APP cleaving enzyme 1) | 0.46 | enough cells in well | inactive |
| Or2a52 (olfactory receptor family 2 subfamily A member 52) | 0.52 | enough cells in well | inactive |
| Cnr2 (cannabinoid receptor 2) | 1.04 | enough cells in well | inactive |
| Samd10 (sterile alpha motif domain containing 10) | 2.53 | enough cells in well | inactive |
